Measurements published in publication doi:10.1101/2023.07.25.550481.
At least one result comes from cells or an extract, where the contact may be indirect. No signal at the amounts used counts as a negative. For part of these data: For at least one entry, the source does not settle the construct or the ends of the probe. For part of these data: At least one verdict rests on a figure or table, not on a statement of the authors. For part of these data: A weaker result is weaker than the reference pair of the same experiment.

Amino acid sequences for entries named in this document (tags omitted).
UniProt P10074, whole entry R611A: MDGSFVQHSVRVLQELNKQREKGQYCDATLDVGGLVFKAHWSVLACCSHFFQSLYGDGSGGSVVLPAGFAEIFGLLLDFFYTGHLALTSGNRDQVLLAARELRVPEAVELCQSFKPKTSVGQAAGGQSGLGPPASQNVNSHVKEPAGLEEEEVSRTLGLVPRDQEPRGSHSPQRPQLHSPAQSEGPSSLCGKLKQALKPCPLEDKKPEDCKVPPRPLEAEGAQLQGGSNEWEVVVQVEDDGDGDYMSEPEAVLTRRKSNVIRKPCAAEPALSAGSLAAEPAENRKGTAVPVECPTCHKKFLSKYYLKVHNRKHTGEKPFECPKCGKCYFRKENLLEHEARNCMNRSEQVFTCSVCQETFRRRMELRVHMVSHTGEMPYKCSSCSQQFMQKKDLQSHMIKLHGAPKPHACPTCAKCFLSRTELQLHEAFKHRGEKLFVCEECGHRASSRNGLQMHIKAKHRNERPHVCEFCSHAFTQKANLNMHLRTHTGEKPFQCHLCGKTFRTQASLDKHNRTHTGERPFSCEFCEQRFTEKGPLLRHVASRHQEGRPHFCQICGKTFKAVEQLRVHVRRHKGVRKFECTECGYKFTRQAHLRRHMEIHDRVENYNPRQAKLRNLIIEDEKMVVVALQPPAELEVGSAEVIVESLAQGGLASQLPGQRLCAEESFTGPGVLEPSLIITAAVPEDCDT
UniProt P10074, whole entry R611A/R614A: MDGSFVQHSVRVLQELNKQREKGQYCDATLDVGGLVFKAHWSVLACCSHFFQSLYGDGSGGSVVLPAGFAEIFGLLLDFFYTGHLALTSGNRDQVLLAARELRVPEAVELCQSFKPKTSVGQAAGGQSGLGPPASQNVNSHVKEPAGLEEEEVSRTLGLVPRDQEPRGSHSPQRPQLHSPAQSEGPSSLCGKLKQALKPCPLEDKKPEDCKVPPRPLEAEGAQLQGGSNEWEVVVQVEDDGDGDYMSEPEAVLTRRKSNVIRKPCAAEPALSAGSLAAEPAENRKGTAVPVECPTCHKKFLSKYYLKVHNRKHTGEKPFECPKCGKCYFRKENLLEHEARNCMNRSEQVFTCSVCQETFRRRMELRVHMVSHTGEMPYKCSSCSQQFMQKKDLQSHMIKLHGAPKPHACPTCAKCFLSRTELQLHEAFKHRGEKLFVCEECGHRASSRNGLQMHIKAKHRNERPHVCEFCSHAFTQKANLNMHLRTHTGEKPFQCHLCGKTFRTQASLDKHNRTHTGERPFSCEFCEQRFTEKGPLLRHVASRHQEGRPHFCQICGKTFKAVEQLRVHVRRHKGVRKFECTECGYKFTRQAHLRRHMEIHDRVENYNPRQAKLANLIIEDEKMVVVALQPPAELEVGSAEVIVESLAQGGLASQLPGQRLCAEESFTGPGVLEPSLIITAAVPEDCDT
UniProt P10074, whole entry R614A: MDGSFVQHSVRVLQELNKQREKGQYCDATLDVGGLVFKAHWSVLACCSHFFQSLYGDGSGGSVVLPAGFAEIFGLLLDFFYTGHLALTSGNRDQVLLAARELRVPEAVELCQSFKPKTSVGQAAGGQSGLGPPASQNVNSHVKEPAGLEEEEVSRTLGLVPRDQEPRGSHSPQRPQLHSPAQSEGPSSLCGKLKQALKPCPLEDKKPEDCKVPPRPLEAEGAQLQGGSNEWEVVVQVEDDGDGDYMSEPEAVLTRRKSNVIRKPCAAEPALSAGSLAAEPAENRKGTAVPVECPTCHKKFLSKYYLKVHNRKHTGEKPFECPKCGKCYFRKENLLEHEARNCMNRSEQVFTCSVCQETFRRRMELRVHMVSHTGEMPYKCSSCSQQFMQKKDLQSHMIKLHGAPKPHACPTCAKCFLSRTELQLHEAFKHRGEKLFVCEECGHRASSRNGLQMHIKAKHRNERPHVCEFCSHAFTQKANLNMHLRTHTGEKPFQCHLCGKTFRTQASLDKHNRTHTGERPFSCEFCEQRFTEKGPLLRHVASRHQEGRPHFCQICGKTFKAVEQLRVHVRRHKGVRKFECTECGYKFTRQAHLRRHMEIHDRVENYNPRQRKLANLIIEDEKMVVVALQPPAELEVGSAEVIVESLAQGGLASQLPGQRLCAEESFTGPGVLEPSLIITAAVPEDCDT
UniProt P10074, whole entry H568A: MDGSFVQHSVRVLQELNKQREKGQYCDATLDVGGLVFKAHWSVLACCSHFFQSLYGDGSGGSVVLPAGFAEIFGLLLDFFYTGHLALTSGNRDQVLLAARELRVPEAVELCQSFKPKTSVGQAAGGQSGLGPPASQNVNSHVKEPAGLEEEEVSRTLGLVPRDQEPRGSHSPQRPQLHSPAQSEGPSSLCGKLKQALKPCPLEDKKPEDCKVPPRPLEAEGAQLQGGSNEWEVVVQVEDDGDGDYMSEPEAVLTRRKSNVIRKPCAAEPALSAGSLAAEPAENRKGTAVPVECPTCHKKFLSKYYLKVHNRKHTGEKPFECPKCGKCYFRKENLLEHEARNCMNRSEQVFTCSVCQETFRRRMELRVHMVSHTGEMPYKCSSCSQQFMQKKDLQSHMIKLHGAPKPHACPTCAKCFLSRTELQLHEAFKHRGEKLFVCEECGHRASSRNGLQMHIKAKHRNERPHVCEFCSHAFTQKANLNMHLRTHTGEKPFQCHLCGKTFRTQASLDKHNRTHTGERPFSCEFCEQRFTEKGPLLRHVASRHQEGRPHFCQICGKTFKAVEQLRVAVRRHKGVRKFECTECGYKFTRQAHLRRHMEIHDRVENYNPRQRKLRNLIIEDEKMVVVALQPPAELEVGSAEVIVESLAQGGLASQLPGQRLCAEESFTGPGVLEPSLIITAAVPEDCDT
UniProt P10074, whole entry H596A: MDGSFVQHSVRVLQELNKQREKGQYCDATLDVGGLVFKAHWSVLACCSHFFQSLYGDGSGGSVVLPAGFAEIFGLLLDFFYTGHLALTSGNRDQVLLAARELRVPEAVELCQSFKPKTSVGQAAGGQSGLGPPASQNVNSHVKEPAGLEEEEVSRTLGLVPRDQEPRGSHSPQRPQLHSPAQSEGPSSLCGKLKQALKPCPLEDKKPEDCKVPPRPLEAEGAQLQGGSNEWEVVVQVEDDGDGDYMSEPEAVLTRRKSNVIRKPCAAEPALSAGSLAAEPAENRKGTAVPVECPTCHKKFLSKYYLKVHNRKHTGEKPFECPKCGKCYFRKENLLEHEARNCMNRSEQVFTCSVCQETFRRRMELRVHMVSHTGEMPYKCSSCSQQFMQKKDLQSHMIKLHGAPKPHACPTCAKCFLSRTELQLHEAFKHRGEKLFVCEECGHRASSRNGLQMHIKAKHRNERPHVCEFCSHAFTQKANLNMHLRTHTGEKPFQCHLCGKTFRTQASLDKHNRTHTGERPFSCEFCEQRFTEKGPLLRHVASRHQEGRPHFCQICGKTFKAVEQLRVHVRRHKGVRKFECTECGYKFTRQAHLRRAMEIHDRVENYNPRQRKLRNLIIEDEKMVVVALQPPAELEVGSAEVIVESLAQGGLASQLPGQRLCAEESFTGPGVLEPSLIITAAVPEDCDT

How the values were obtained:
Test in all cases: pull-down
[1] = biological target: ZBTB48 (endogenous) (UniProt P10074); settings: desthiobiotin-dATP; protein in an extract
[2] = biological target: FLAG-ZBTB48 R611A (UniProt P10074); settings: desthiobiotin-dATP; protein in a lysate after overexpression
[3] = biological target: FLAG-ZBTB48 R611A/R614A (UniProt P10074); settings: desthiobiotin-dATP; protein in a lysate after overexpression
[4] = biological target: FLAG-ZBTB48 R614A (UniProt P10074); settings: desthiobiotin-dATP; protein in a lysate after overexpression
[5] = biological target: FLAG-ZBTB48 WT (UniProt P10074); settings: desthiobiotin-dATP; protein in a lysate after overexpression
[6] = biological target: FLAG-ZBTB48 ZnF10 mut H568A (UniProt P10074); settings: desthiobiotin-dATP; protein in a lysate after overexpression
[7] = biological target: FLAG-ZBTB48 ZnF11 mut H596A (UniProt P10074); settings: desthiobiotin-dATP; protein in a lysate after overexpression

ATCCCTCACTTGTTTCTTATCCCTCACTTGTTTCTTATCCCTCACTTGTTTCTT / ATAAGAAACAAGTGAGGGATAAGAAACAAGTGAGGGATAAGAAACAAGTGAGGG [CIITA probe e.3 (text) = f.3 in Table S6]
binding result [1]: no binding

CTCACTTGTTTCTTTGCATGTTGGCTTAGCTTGGCGGGCTCCCAACTGGTGACTGGTTAG / AGCTAACCAGTCACCAGTTGGGAGCCCGCCAAGCTAAGCCAACATGCAAAGAAACAAGTG [CIITA pIII probe 5]
binding result [1]: no binding

CTGACCGCTTGGGGCCACCTTGCAGGGAGAGTTTTTTTGATGATCCCTCACTTGTTTCTT / AGAAGAAACAAGTGAGGGATCATCAAAAAAACTCTCCCTGCAAGGTGGCCCCAAGCGGTC [CIITA pIII probe 4]
binding result [1]: binds

CTGCCAGACTCCGGGAGCTGCTGCCTGGCTGGGATTCCTACACAATGCGTTGCCTGGCTC / AGGAGCCAGGCAACGCATTGTGTAGGAATCCCAGCCAGGCAGCAGCTCCCGGAGTCTGGC [CIITA pIII probe 8]
binding result [1]: no binding

CTGGGCATCCGAAGGCATCCTTGGGGAAGCTGAGGGCACGAGGAGGGGCTGCCAGACTCC / AGGGAGTCTGGCAGCCCCTCCTCGTGCCCTCAGCTTCCCCAAGGATGCCTTCGGATGCCC [CIITA pIII probe 7]
binding result [1]: no binding

CTTAAGGGAGTGTGGCTTAAGGGAGTGTGGCTTAAGGGAGTGTGGCTTAAGGGAGTGTGG / AGCCACACTCCCTTAAGCCACACTCCCTTAAGCCACACTCCCTTAAGCCACACTCCCTTA [CIITA probe b.1]
binding result [2]: no binding
binding result [3]: no binding
binding result [4]: no binding
binding result [5]: binds
binding result [6]: binds more weakly
binding result [7]: no binding
binding result [1]: binds

CTTAAGGGAGTGTGGTAAAATTAGAGGGTGCTTAAGGGAGTGTGGTAAAATTAGAGGGTG / AGCACCCTCTAATTTTACCACACTCCCTTAAGCACCCTCTAATTTTACCACACTCCCTTA [CIITA probe b]
binding result [1]: binds

CTTAAGGGAGTGTGGTAAAATTAGAGGGTGTTCAGAAACAGAAATCTGACCGCTTGGGGC / AGGCCCCAAGCGGTCAGATTTCTGTTTCTGAACACCCTCTAATTTTACCACACTCCCTTA [CIITA pIII probe 3]
binding result [1]: binds

CTTGGGGCCACCTTGCAGGGAGAGTTTTTTCTTGGGGCCACCTTGCAGGGAGAGTTTTTT / AGAAAAAACTCTCCCTGCAAGGTGGCCCCAAGAAAAAACTCTCCCTGCAAGGTGGCCCCA [CIITA probe d (text) = probe e in Table S6]
binding result [1]: no binding

GTAAAATTAGAGGGTGGTAAAATTAGAGGGTGGTAAAATTAGAGGGTG / ACCACCCTCTAATTTTACCACCCTCTAATTTTACCACCCTCTAATTTT [CIITA probe b.3]
binding result [1]: no binding

GTCCACAGTAAGGAAGTGAAATTAATTTCAGAGGTGTGGGGAGGGCTTAAGGGAGTGTGG / ACCCACACTCCCTTAAGCCCTCCCCACACCTCTGAAATTAATTTCACTTCCTTACTGTGG [CIITA pIII probe 2]
binding result [1]: binds

GTGACTGGTTAGTGATGAGGCTAGTGATGAGGCTGTGTGCTTCTGAGCTGGGCATCCGAA / ACTTCGGATGCCCAGCTCAGAAGCACACAGCCTCATCACTAGCCTCATCACTAACCAGTC [CIITA pIII probe 6]
binding result [1]: no binding

GTGAGTGTGAGTGTGAGTGTGAGTGTGAGTGTGAGTGTGAGTGTGAGTGTGAGTGTGAGT / ACACTCACACTCACACTCACACTCACACTCACACTCACACTCACACTCACACTCACACTC [GTGAGT scramble control]
binding result [5]: no binding
binding result [1]: no binding

GTGTGGTAAAATTAGGTGTGGTAAAATTAGGTGTGGTAAAATTAGGTGTGGTAAAATTAG / ACCTAATTTTACCACACCTAATTTTACCACACCTAATTTTACCACACCTAATTTTACCAC [CIITA probe b.2]
binding result [1]: no binding

GTTTTTTTGATGATCCCTCACTTGTTTCTTGTTTTTTTGATGATCCCTCACTTGTTTCTT / ACAAGAAACAAGTGAGGGATCATCAAAAAAACAAGAAACAAGTGAGGGATCATCAAAAAA [CIITA probe e (text) = probe f in Table S6]
binding result [1]: binds

GTTTTTTTGATGATCGTTTTTTTGATGATCGTTTTTTTGATGATCGTTTTTTTGATGATC / ACGATCATCAAAAAAACGATCATCAAAAAAACGATCATCAAAAAAACGATCATCAAAAAA [CIITA probe e.1 (text) = f.1 in Table S6]
binding result [1]: no binding

TTAATTTCAGAGGTGTGGGGAGGGCTTAAGGTTAATTTCAGAGGTGTGGGGAGGGCTTAAGG / AACCTTAAGCCCTCCCCACACCTCTGAAATTAACCTTAAGCCCTCCCCACACCTCTGAAATT [CIITA probe a]
binding result [1]: no binding

TTAGAGGGTGTTCAGAAACAGAAATCTGACCGCTTGGG / AACCCAAGCGGTCAGATTTCTGTTTCTGAACACCCTCT [CIITA probe c]
binding result [1]: no binding

TTAGGGTTAGGGTTAGGGTTAGGGTTAGGGTTAGGGTTAGGGTTAGGGTTAGGGTTAGGG / AACCCTAACCCTAACCCTAACCCTAACCCTAACCCTAACCCTAACCCTAACCCTAACCCT [telomeric TTAGGG]
binding result [3]: no binding
binding result [4]: binds more weakly
binding result [5]: binds
binding result [6]: binds
binding result [7]: no binding
binding result [1]: binds

TTCCCCCAACAGACTTTCTGTGCAACTTTCTGTCTTCACCAAATTCAGTCCACAGTAAGG / AACCTTACTGTGGACTGAATTTGGTGAAGACAGAAAGTTGCACAGAAAGTCTGTTGGGGG [CIITA pIII probe 1]
binding result [1]: no binding

TTGATGATCCCTCACTTGATGATCCCTCACTTGATGATCCCTCACTTGATGATCCCTCAC / AAGTGAGGGATCATCAAGTGAGGGATCATCAAGTGAGGGATCATCAAGTGAGGGATCATC [CIITA probe e.2 (text) = f.2 in Table S6]
binding result [2]: binds more weakly
binding result [3]: no binding
binding result [5]: binds
binding result [6]: no binding
binding result [7]: no binding
binding result [1]: binds

TTGTTTCTTTGCATGTTGGCTTAGCTTGGCTTGTTTCTTTGCATGTTGGCTTAGCTTGGC / AAGCCAAGCTAAGCCAACATGCAAAGAAACAAGCCAAGCTAAGCCAACATGCAAAGAAAC [CIITA probe f (text) = probe g in Table S6]
binding result [1]: no binding
